Results taken from the supplement of paper PMC3334620.
The full ranking holds about 33,000 sequences; the median of “E-score (-0.5 to 0.5)” is about -8e-05, and the highest 2% start at about 0.23. The list shows a part of the results.

What follows are sequences tested against T1, Nrg2 (UniProt P38082) (assay: PBM E-score (8-mer binding enrichment) (E-score (-0.5 to 0.5)); higher = stronger / more preferred TF binding). Details: protein concentration: 100 nM; construct: GST-full length.
T1 sequence: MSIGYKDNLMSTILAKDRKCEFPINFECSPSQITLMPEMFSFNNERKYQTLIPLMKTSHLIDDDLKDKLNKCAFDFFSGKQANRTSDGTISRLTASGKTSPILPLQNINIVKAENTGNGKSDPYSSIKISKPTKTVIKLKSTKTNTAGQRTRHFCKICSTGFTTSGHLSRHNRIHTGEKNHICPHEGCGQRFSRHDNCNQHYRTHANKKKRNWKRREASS
How it was run: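 The E-score, a modified Wilcoxon-Mann-Whitney statistic, was computed by the Universal PBM Analysis Suite for every ungapped eight-base word pooled with its reverse complement. Scans behind it were normalised with masliner after bound GST-tagged yeast transcription factors were detected with fluorescent anti-GST. The proteins, at about 100-200 nM, had been applied to universal all-10-mer Agilent arrays made double-stranded by primer extension.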

Row | Sequence | PBM E-score
1 | ACTCAAAG | -0.0492
2 | CCTCGACC | -0.128
3 | CTCAGCGA | 0.0665
4 | AGCAAGCC | -0.0587
5 | AAGCGTGA | 0.113
6 | CCGGATGA | 0.0124
7 | CTACCGAG | -0.171
8 | ACATGCAG | 0.0502
9 | CTTTAATA | 0.125
10 | CGTCGAAC | -0.0858
11 | AGACAAAC | -0.0664
12 | CTAGTGGC | -0.0913
13 | AACAGGTA | 0.0321
14 | AATAGGCC | -0.146
15 | AGCCGGTG | 0.0695
16 | CTCGCAGA | -0.0929
17 | ATCCTACC | -0.0603
18 | ACGTCCAT | -0.00778
19 | GAGGGTAC | 0.0887
20 | AGGTGATC | 0.00773
21 | GGAATTGA | 0.189
22 | ACTAATGA | 0.149
23 | CACTCGTA | -0.0342
24 | GGGTTACA | -0.143
25 | ACGTATTA | 0.202

Row | Sequence | PBM E-score
26 | ATTGAAAC | 0.123
27 | TCCGCTCA | -0.0356
28 | GCACCTTA | 0.0493
29 | CAGGATTC | -0.0379
30 | ACAGTCTC | -0.198
31 | CGCGAAGC | 0.128
32 | CGATCACG | 0.0919
33 | CGGCCACG | -0.257
34 | AGCGCAGG | -0.0457
35 | ACTTAGAG | -0.165
36 | CAGCAGGC | -0.0392
37 | CGGACTAC | -0.0158
38 | GTAGTCGA | -0.00498
39 | AGTACATG | -0.0555
40 | GGGTGTAC | -0.0162
41 | ACCTGACA | 0.167
42 | ACTATGTG | 0.108
43 | ATTACTGG | -0.0209
44 | CCCAGTCA | -0.249
45 | CCGGATCC | 0.0775
46 | AAGGGAGC | -0.187
47 | ACCTGAAA | 0.00478
48 | CAGCGGTC | -0.102
49 | ACTTCCGG | -0.165
50 | GATAAAGC | -0.00016

Row | Sequence | PBM E-score
51 | AAGCATGT | 0.0409
52 | AAATGTCG | 0.0668
53 | AGCCAAAT | 0.0146
54 | CCGTCTGC | 0.0171
55 | ATGCGGTA | -0.0628
56 | ACAACGAG | 0.0513
57 | TATTACAA | 0.022
58 | CTAGGGGA | 0.0651
59 | CAGTCACA | -0.0678
60 | AATCTCAT | 0.0761
61 | CTGGTGTC | -0.0326
62 | ATTTTTAG | -0.129
63 | ACTCACGA | -0.0919
64 | AAGGAGCA | -0.0808
65 | CACAATCC | -0.00291
66 | CTCGACAG | -0.117
67 | AACGAACT | -0.127
68 | CCAAACTA | 0.099
69 | GAGCTGCC | -0.131
70 | CGGAAAGA | 0.0171
71 | TCGTCGCA | 0.115
72 | CCATAACC | 0.0412
73 | GACACTGC | -0.0906
74 | ATCGGTTG | -0.0621
75 | ATGAGGCG | -0.0537

Rewritten as tab-separated lines: part of the list above
Row	Sequence	PBM E-score
59	CAGTCACA	-0.0678
60	AATCTCAT	0.0761

Carrying on:

Row | Sequence | PBM E-score
76 | CTGGGGGC | -0.288
77 | ACGATAGT | 0.0866
78 | GGAGTTCA | -0.0445
79 | AGCAATGA | 0.0849
80 | TGATCACA | 0.00291
81 | AGCAACGG | 0.218
82 | CGAATTCA | 0.134
83 | CTGGATCA | -0.0464
84 | AAATGGCG | 0.0803
85 | CCTACGTA | -0.129
86 | CGGCAATA | 0.174
87 | TAGAACTA | -0.0342
88 | AGCCAGGC | -0.0435
89 | AAATTCCG | 0.163
90 | TGCCGGAA | 0.0295
91 | GATCCACA | -0.0447
92 | GCTGTTTA | 0.0662
93 | TCACACCA | 0.0485
94 | ACACTATC | 0.129
95 | GACGACTA | -0.0919
96 | AGCCGGTC | -0.292
97 | CCTCTCCA | -0.343
98 | CAGAATGC | 0.0105
99 | GCCCACGC | -0.13
100 | ACGGGTGA | 0.104

Row | Sequence | PBM E-score
101 | CGTCTTCA | 0.0161
102 | AAATGTAC | 0.202
103 | ACGAGTCA | -0.246
104 | CATAATTC | -0.00086
105 | AGTGATCC | 0.047
106 | TAAACTAA | 0.186
107 | CGAAGAAA | 0.111
108 | CCGGGAGA | -0.0964
109 | GTCTTAAC | 0.0196
110 | CAATTTAC | 0.12
111 | CCCCAGTA | -0.00702
112 | CCGAAACG | -0.0772
113 | CCAAGAGC | -0.00579
114 | ATAGGCTC | -0.111
115 | CGTAGTGC | -0.0608
116 | CGAGAACA | 0.0814
117 | GATATGCC | 0.132
118 | CAGATAGA | -0.0814
119 | CCGAGCAA | -0.0344
120 | CCGCACCA | 0.063
121 | CCGTGGTC | -0.246
122 | GGAAGCCA | -0.222
123 | AGTATAGA | 0.17
124 | CCTTCTAC | -0.00916
125 | AAGACAAT | 0.054

3 records picked at random from the list so far, as already listed:
Row | Sequence | PBM E-score
41 | ACCTGACA | 0.167
7 | CTACCGAG | -0.171
53 | AGCCAAAT | 0.0146

Additional entries

Row | Sequence | PBM E-score
126 | AATGTACG | 0.0534
127 | ACAGTTCC | 0.0621
128 | CGCGGCCG | -0.0624
129 | GTGCTTCA | 0.161
130 | CTTCTTGC | 0.111
131 | ACGCCCCA | 0.179
132 | ACACTGGC | -0.0834
133 | CGCCAGCC | 0.00719
134 | GGGAAGCA | -0.078
135 | CGGCGGAC | 0.0566
136 | TACAGAGA | -0.0618
137 | CGTTCCAG | -0.0838
138 | ACTTGGGG | 0.105
139 | GCAACTGC | 0.111
140 | CCAGAGAA | 0.00999
141 | AATGCCCA | -0.0232
142 | GCCCATTA | -0.025
143 | ATCTCGGC | 0.0312
144 | ACAATAAG | 0.0954
145 | GACAAACC | -0.0232
146 | CAAAAAAC | 0.079
147 | CCTGTCCG | 0.0584
148 | CGGGAGCC | -0.131
149 | GTGCAAAC | -0.0879
150 | GGAAGGCC | -0.234

Row | Sequence | PBM E-score
151 | CATATGCA | 0.125
152 | CCTGCTTC | -0.167
153 | GTGTAGCA | -0.149
154 | ACCCAAAG | -0.207
155 | CAAGAGTG | -0.163
156 | AGGTGATA | -0.0337
157 | AGCTTAGA | 0.00969
158 | CGTCAACA | -0.0667
159 | AGCTTACT | 0.044
160 | TACGAAGA | -0.00851
161 | ACATATTG | 0.0964
162 | AAGGCAGC | -0.156
163 | CCAGAAAG | 0.0704
164 | CACCCGGG | -0.0923
165 | CAGCAACA | 0.159
166 | CCGGGCAC | -0.16
167 | AGGCACCC | -0.182
168 | ATCAATCG | 0.137
169 | CGATGGTC | 0.0607
170 | CCTTGTAG | -0.223
171 | ATTCGGAG | 0.0374
172 | GGGCCCGA | 0.159
